Laboratory results published in US20110171205A1.
Results are given in words; binding and its absence hold for the method and conditions named. Binding seen in cells or lysates may run through a third protein. Some results given as binding are weak or reduced against the parent protein; the word gives no strength. For part of these data: Tags and fused reporters may be left off the sequences shown. Blank lines part the entries; values can stand above or below the binder they belong to.

Amino acid sequences for entries named in this document (tags omitted).
UniProt Q08460: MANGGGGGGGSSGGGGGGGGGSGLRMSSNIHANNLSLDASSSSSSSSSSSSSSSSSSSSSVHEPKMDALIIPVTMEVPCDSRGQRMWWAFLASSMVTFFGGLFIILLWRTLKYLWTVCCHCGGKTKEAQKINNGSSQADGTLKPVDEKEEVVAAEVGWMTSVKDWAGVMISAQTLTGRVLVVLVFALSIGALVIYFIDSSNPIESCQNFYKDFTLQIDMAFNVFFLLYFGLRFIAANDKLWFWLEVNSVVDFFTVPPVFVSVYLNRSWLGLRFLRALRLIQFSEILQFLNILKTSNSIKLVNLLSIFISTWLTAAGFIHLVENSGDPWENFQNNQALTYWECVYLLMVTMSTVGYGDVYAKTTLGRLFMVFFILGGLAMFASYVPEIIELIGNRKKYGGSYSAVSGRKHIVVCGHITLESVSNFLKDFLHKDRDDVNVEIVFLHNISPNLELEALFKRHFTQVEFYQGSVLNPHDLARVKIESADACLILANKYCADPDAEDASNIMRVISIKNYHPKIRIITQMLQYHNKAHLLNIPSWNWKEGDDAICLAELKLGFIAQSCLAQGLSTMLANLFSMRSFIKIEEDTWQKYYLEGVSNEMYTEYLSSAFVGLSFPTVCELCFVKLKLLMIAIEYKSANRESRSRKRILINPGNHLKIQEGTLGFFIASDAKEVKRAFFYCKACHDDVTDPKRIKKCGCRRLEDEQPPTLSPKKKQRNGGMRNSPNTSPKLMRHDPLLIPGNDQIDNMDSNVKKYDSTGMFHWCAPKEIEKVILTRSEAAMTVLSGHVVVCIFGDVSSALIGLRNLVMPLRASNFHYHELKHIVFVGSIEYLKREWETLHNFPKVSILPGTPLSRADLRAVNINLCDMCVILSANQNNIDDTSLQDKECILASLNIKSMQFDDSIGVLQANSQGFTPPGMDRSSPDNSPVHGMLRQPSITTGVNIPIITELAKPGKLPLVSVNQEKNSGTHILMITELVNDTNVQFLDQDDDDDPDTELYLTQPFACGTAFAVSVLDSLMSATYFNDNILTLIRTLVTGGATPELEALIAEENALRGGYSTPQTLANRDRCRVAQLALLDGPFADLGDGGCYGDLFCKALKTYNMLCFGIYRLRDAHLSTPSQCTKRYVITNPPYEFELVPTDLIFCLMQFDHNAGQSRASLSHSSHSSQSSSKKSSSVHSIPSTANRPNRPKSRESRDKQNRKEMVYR
UniProt Q12791: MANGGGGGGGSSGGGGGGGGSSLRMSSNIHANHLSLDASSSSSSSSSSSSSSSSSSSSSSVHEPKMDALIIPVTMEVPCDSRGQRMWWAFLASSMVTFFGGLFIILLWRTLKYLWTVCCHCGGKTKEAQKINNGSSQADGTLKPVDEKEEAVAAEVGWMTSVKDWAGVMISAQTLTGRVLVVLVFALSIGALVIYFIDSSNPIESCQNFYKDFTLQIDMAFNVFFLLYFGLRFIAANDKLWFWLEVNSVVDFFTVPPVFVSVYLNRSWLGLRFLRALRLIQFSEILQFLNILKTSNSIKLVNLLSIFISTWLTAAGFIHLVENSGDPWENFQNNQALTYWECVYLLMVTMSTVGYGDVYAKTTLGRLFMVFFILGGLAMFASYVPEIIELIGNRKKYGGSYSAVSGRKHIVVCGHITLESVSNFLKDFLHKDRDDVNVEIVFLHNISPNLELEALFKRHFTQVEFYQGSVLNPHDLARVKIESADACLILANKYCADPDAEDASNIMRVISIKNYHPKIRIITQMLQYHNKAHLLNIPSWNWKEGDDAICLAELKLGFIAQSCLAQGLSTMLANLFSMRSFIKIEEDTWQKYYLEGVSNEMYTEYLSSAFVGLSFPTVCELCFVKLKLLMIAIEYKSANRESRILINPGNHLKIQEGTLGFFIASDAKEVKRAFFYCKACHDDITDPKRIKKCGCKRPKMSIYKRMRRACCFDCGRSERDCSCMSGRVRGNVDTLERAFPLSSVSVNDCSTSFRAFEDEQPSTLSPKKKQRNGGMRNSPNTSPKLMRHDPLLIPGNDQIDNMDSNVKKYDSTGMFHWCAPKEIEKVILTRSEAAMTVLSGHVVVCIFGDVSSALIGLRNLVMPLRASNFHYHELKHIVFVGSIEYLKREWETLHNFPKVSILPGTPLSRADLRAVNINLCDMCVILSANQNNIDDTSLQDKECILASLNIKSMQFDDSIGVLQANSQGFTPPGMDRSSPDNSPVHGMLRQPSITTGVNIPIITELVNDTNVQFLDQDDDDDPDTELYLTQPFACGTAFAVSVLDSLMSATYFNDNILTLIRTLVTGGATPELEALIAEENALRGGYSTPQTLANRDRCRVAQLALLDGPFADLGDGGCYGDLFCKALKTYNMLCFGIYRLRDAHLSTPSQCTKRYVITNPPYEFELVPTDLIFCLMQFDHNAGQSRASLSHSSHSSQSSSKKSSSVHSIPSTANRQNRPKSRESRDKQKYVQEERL

Tests used:
[1] = target: mSlo, mouse pore-forming α-subunit of the high conductance calcium-activated potassium channel (maxi-K) (mouse) (UniProt Q08460); assay: co-immunoprecipitation from co-transfected cells, Western blot; the higher molecular weight m∃4 band preferentially co-immunoprecipitates with mSlo
[2] = target: mSlo, mouse pore-forming α-subunit of the high conductance calcium-activated potassium channel (maxi-K) (mouse) (UniProt Q08460); assay: co-immunoprecipitation
[3] = target: hSlo, human pore-forming α-subunit of the high conductance calcium-activated potassium channel (maxi-K) (human) (UniProt Q12791); assay: co-immunoprecipitation from co-transfected HEK 293 cells
[4] = target: hSlo, human pore-forming α-subunit of the high conductance calcium-activated potassium channel (maxi-K) (human) (UniProt Q12791); assay: co-immunoprecipitation from co-transfected HEK 293 cells, Western blot; also seen in the reverse direction (precipitating epitope-tagged ∃4, probing with anti-Slowpoke antibodies); the higher molecular weight h∃4 band is enriched in the hSlo immunoprecipitate
[5] = target: mSlo, mouse pore-forming α-subunit of the high conductance calcium-activated potassium channel (maxi-K) (mouse) (UniProt Q08460); assay: co-immunoprecipitation from co-transfected HEK293 cells: mSlo precipitated with antibodies against the α-subunit, Western blot with anti-V5 monoclonal antibody
[6] = target: hSlo, human pore-forming α-subunit of the high conductance calcium-activated potassium channel (maxi-K) (human) (UniProt Q12791); assay: co-immunoprecipitation

- binding [1]: binds
- binding [2]: binds
B1: mouse Slowpoke ∃4 subunit (protein, UniProt Q9JIN6 1-210, looked up, not shown: small tags and cut ends)
chain: MAKLRVSYEYTEAEDKSIRLGLFLIVSGILSLFIFGFCWLSPALQDLQATAANCTVLSVQQIGEVFECTFTCGTDCRGTSQYPCVQVYVNNSESNSRALLHSDQHQLLTNPKCSYIPPCKRENQKNSESVMNWQQYWKDEIGSQPFTCYFNQHQRPEDVLLQRTHDEIALLHCFLWPVVAFVVGVLIVVLTICAKSLAVKAEAMKKRKFS

- binding [3]: binds
- binding [4]: binds
- binding [5]: binds
- binding [6]: binds
B2: V5 epitope-tagged human C7F2 potassium channel β-subunit (protein, not shown: small tags and cut ends)
chain: MAKLRVAYEYTEAEDKSIRLGLFLIISGVVSLFIFGFCWLSPALQDLQATEANCTVLSVQQIGEVFECTFTCGADCRGTSQYPCVQVYVNNSESNSRALLHSDEHQLLTNPKCSYIPPCKRENQKNLESVMNWQQYWKDEIGSQPFTCYFNQHQRPDDVLLHRTHDEIVLLHCFLWPLVTFVVGVLIVVLTICAKSLAVKAEAMKKRKFS
